The results in this text go back to patent US5977088A (priority 1995, dated 1999).

The test can be described thus: Chronic conditions - evaluations of patients treated with […] hyaluronic acid with 3% diclofenac acid (HD). Type of test: in vivo, human (patients). Conditions: single patient.

On to `C[C@]12CCC(=O)C=C1CC[C@@H]1[C@@H]2C(=O)C[C@@]2(C)[C@H]1CC[C@]2(O)C(=O)CO` [cortisone], for which the “Comments on outcome (in words)” value is recorded as “transient relief”.
